Data: patent US20250171534A1
These are yes or no findings as the source states them, for the method shown. For some assays here: Binding calls can cover weak binding; strength is not graded here.

Tests used:
[1] = target: cynomolgus monkey putative LILRB2 (antigen of the Gator measurement) (cynomolgus monkey); assay: BLI (Gator), cyno RB2-his
[2] = target: LILRB2-ECD-His (SinoBiological, Cat #: 14132-H08H-B) (Homo sapiens (Human)); assay: competition ELISA: plate coated with MAG, biotinylated LILRB2 pre-incubated with titrated antibody, streptavidin-HRP and TMB, OD450
[3] = target: LILRB2-ECD-His (SinoBiological, Cat #: 14132-H08H-B) (Homo sapiens (Human)); assay: competition ELISA: plate coated with CD1C, biotinylated LILRB2 pre-incubated with titrated antibody, streptavidin-HRP and TMB, OD450
[4] = target: LILRB2-ECD-His (SinoBiological, Cat #: 14132-H08H-B) (Homo sapiens (Human)); assay: competition ELISA: plate coated with CD1D, biotinylated LILRB2 pre-incubated with titrated antibody, streptavidin-HRP and TMB, OD450
[5] = target: LILRB2-ECD-His (SinoBiological, Cat #: 14132-H08H-B) (Homo sapiens (Human)); assay: competition ELISA: plate coated with SEMA4A, biotinylated LILRB2 pre-incubated with titrated antibody, streptavidin-HRP and TMB, OD450
[6] = target: LILRB2-ECD-His (SinoBiological, Cat #: 14132-H08H-B) (Homo sapiens (Human)); assay: competition ELISA: plate coated with ANGPTL2, biotinylated LILRB2 pre-incubated with titrated antibody, streptavidin-HRP and TMB, OD450
[7] = target: LILRB2-ECD-His (SinoBiological, Cat #: 14132-H08H-B) (Homo sapiens (Human)); assay: competition ELISA: plate coated with ANGPTL5, biotinylated LILRB2 pre-incubated with titrated antibody, streptavidin-HRP and TMB, OD450

B1: D2M002-126 (antibody, V domains shown)
VH: QVQLVQSGAEVKKPGASVKVSCKASGYTFTSYWIEWVRQAPGQGLEWIGEILPGDESTNYNAKFKGRVTFTTDTSTSTAYMELRSLRSDDTAVYYCARSGAGGYDSGAFAYWGQGTLVTVSS
VL: AIQLTQSPSSLSASVGDRVTITCRASESVDTYGNSFMHWYQQKPGKAPKLLVYRTSNLESGVPSRFSGSGSGTDFTLTISSLQPEDFATYYCQQSNEDPWTFGGGTKVEIK
binding [1]: no binding | binding [2]: binds | binding [3]: binds | binding [4]: binds | binding [5]: binds | binding [6]: binds | binding [7]: binds

B2: D2M002-026 (antibody, V domains shown)
VH: QVQLQQPGAELMKPGASVKISCKATGYTFSSYWIEWVKQRPGHGLEWIGEILPGDGSTNYNAKFKGQATFTADTSSNTAYMQFSSLTSEDSAVYYCARSGAGGYDSGAFAYWGQGTLVTVSS
VL: DIVLTQSPASLAVSLGQRATISCRASESVDTYGNSFMHWYQQKPGQPPKLLVYRTSNLESGIPARFSGSGSGTDFTLTINPVEADDVATYYCQQSNEDPWTFGGGTKLEIK
binding [1]: no binding
